# In the supplement of paper PMC6411743:
# Amino acid sequences for entries named in this document (tags omitted). A change or cut given only in a name is not applied to a line headed by its entry.
# UniProt O75976: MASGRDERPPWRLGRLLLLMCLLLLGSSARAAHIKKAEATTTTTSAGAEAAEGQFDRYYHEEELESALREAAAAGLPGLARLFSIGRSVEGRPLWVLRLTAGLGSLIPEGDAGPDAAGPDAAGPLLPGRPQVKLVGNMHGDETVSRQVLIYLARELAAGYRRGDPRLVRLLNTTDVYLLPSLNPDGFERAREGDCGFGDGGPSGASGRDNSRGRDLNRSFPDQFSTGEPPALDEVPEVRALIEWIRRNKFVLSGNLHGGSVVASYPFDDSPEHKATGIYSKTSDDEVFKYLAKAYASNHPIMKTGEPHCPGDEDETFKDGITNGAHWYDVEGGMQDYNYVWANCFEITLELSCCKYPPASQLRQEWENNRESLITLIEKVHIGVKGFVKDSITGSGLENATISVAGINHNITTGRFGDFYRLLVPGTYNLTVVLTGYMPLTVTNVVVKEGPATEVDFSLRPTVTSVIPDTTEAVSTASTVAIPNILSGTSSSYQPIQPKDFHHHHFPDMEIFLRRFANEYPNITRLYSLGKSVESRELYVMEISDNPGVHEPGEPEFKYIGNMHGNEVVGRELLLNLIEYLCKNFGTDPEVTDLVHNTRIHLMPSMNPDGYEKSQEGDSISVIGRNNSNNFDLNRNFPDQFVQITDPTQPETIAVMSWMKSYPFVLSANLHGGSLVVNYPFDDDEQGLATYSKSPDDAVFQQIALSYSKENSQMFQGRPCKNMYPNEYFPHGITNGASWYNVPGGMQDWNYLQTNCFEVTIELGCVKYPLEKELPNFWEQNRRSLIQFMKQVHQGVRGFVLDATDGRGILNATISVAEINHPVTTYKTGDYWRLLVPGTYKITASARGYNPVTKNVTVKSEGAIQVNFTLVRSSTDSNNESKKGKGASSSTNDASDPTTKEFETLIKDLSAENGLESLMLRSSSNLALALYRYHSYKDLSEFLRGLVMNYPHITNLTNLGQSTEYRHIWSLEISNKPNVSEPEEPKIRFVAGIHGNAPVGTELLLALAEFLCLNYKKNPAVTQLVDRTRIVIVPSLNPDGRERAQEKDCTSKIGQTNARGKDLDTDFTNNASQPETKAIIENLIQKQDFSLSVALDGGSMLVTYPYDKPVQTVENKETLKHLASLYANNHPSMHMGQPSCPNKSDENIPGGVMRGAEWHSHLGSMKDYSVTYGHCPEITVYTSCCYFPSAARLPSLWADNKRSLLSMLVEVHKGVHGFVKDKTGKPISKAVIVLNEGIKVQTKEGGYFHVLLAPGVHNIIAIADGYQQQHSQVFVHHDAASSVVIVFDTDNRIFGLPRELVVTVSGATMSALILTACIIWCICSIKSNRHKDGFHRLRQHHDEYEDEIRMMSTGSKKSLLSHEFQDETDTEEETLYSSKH
# UniProt O94900: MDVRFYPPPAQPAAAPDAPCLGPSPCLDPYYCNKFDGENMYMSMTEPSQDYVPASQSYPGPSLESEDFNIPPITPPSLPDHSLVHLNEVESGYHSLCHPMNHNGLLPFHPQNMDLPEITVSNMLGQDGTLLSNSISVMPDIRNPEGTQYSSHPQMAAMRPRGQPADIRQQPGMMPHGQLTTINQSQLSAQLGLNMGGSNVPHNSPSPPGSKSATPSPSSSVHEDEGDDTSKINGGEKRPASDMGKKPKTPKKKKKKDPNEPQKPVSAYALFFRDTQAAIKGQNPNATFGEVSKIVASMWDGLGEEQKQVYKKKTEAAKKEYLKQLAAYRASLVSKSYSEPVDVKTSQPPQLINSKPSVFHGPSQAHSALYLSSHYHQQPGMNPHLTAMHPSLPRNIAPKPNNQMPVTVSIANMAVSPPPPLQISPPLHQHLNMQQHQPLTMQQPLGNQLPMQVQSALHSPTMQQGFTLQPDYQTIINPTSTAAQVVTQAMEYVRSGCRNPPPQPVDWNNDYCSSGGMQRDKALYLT
# UniProt O60749: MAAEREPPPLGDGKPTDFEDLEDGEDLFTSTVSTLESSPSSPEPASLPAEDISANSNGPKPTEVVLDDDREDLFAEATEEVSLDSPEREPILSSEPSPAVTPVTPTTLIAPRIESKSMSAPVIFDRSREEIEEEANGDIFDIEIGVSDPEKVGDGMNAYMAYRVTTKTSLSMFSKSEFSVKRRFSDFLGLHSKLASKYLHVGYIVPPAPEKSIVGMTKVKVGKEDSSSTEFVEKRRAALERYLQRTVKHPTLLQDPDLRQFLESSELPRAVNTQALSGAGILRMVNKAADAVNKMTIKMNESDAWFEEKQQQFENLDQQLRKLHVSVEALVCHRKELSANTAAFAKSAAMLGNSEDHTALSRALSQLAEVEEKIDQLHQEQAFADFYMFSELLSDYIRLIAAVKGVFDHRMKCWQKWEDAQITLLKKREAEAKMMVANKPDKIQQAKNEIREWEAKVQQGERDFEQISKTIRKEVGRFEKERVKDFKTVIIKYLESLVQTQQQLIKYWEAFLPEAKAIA
# UniProt O75874, whole entry: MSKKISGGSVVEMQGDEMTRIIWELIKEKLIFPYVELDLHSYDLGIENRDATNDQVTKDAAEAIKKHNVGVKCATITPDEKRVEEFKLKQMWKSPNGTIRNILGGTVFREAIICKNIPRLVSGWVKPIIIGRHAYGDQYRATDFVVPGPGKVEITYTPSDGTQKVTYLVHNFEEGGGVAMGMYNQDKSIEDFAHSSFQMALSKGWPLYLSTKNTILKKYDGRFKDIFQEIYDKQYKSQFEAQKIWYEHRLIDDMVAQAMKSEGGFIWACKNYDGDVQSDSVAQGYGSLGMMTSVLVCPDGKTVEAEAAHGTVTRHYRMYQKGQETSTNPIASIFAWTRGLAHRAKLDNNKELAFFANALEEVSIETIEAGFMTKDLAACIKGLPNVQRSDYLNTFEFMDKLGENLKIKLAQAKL
# UniProt O95721: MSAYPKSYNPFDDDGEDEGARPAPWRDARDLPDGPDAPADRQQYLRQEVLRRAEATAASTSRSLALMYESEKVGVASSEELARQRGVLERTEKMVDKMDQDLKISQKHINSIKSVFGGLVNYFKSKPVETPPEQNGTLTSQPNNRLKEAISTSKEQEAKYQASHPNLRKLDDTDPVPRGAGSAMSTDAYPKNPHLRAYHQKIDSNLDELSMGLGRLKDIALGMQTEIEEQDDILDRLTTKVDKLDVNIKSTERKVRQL
# UniProt O75794: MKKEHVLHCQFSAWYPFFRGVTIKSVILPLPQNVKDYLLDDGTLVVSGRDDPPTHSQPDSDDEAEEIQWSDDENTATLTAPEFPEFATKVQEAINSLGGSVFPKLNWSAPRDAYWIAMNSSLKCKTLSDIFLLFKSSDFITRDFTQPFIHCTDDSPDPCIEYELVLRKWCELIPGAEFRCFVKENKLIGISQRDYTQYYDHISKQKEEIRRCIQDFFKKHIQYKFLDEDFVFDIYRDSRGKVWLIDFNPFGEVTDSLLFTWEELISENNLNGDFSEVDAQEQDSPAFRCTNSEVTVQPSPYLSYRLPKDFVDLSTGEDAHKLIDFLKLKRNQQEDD
# UniProt O75718: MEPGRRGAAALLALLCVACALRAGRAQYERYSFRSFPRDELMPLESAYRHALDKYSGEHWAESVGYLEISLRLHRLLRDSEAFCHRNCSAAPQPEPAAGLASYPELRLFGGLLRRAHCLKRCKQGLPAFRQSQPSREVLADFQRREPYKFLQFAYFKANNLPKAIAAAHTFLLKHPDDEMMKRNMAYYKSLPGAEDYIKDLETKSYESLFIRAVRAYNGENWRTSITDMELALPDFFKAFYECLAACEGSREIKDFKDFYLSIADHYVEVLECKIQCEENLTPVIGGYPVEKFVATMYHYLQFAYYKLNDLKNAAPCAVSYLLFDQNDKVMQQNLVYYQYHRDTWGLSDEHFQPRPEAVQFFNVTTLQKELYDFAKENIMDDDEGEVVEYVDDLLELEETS
# UniProt O75400: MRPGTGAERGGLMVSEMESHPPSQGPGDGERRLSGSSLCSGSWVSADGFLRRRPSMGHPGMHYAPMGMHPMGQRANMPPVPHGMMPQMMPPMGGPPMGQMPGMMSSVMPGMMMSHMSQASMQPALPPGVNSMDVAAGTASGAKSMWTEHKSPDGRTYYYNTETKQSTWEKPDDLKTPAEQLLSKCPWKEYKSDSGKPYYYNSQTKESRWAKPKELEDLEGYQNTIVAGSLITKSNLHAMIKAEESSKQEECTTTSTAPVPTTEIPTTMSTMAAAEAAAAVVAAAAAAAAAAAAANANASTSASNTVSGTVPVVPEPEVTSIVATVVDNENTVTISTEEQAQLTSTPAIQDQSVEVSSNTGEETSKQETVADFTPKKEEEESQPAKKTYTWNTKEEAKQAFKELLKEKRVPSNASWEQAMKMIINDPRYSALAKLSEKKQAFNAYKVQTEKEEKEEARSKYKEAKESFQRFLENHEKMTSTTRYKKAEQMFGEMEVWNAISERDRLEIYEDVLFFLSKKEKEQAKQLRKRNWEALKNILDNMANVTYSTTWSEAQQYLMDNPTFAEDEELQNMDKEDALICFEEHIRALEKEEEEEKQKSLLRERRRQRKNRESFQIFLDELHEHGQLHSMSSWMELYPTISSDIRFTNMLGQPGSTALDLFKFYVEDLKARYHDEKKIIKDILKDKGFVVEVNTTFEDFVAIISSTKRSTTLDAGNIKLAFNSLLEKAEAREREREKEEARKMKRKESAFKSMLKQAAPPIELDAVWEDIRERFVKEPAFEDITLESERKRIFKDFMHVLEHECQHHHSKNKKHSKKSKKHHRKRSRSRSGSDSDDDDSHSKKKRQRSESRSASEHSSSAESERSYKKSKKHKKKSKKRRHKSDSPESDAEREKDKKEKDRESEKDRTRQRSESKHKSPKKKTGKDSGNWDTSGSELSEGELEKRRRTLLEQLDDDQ
# UniProt O95786: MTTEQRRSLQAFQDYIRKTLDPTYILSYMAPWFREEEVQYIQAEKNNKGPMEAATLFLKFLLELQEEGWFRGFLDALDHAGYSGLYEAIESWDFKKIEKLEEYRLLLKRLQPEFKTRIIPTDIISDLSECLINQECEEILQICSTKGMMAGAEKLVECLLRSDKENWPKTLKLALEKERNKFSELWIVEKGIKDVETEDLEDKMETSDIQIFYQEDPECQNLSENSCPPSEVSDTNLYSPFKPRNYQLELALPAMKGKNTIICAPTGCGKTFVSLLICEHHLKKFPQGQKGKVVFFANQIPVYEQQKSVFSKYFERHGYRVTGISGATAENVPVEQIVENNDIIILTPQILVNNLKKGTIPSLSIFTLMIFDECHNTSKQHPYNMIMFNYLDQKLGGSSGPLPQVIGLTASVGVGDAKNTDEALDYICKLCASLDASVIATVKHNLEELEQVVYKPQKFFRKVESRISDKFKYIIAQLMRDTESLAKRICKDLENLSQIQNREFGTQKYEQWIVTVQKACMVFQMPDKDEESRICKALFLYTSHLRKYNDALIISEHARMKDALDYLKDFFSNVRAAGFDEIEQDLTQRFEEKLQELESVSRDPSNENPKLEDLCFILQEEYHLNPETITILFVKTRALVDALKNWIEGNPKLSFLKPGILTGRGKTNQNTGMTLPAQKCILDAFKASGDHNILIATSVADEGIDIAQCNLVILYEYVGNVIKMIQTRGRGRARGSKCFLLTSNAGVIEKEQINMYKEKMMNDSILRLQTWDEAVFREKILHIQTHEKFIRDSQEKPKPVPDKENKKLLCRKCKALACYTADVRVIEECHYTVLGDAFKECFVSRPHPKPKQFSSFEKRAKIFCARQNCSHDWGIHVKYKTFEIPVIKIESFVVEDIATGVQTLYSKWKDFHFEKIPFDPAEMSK
# UniProt O94886: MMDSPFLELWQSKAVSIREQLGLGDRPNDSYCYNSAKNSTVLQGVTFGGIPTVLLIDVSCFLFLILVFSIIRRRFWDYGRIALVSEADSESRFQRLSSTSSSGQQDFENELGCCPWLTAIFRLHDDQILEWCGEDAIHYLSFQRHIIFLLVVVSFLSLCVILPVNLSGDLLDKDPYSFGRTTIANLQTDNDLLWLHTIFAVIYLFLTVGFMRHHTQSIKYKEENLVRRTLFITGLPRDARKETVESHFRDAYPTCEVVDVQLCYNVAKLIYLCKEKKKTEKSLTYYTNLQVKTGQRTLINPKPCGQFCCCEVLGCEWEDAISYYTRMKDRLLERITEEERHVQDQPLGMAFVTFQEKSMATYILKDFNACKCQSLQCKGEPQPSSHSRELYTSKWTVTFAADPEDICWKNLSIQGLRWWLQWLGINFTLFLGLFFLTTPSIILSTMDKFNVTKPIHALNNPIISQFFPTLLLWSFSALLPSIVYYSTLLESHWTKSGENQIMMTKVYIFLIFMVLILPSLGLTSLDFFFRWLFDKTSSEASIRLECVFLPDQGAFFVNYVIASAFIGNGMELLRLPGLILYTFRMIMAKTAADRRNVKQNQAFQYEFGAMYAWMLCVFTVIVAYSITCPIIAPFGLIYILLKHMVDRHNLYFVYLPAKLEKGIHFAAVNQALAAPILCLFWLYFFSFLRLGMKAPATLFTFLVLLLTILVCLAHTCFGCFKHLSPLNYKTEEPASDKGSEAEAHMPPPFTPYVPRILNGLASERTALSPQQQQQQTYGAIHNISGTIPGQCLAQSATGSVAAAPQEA
# ± gives the standard deviation of the averaged measurements. The entries are a selection whose mix differs from that of the whole data set. Most entries show no effect beyond the scatter of the controls.
# Compound: Nc1ncnc2c1ncn2[C@@H]1O[C@H](COP(=O)(O)OP(=O)(O)OP(=O)(O)O)[C@@H](O)[C@H]1O [adenosine triphosphate]
# Experiment: NP40-soluble protein abundance relative to vehicle (solubility fold change) (ratio); higher = more soluble protein in presence of ATP
# Outline: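 Jurkat crude lysate prepared with a Dounce homogeniser was treated at eight concentrations spanning 0.1 to 10 mM, 10 min at room temperature then 3 min at 37 °C. Solubilisation with 0.8% NP40 and benzonase and ultracentrifugation preceded TMT labelling of the supernatant for LC-MS/MS. Fold change against the detergent-processed vehicle was determined per replicate from vsn-normalised intensities, across three independent experiments.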
Target,NP40-soluble protein abundance (concentration: 0.1mM),NP40-soluble protein abundance (concentration: 0.5mM),NP40-soluble protein abundance (concentration: 1mM),NP40-soluble protein abundance (concentration: 2mM),NP40-soluble protein abundance (concentration: 4mM),NP40-soluble protein abundance (concentration: 6mM),NP40-soluble protein abundance (concentration: 8mM),NP40-soluble protein abundance (concentration: 10mM)
CPD (UniProt O75976),0.96 ± 0.015,0.942 ± 0.044,,,,,,
TOX (UniProt O94900),0.922 ± 0.053,0.915 ± 0.1,,,,,,
UniProt O95639 and related entries,1.01 ± 0.038,1.19 ± 0.031,1.3 ± 0.028,1.38 ± 0.046,1.52 ± 0.06,1.64 ± 0.1,1.7 ± 0.039,1.73 ± 0.078
UniProt O60749 and related entries,0.988 ± 0.029,1.02 ± 0.06,,,,,,
IDH1 (UniProt O75874),1.04 ± 0.075,1.04 ± 0.059,0.993 ± 0.056,0.988 ± 0.038,0.94 ± 0.052,0.94 ± 0.081,0.957 ± 0.04,0.949 ± 0.027
SNAP29 (UniProt O95721),0.956 ± 0.069,0.94 ± 0.075,0.967 ± 0.086,0.943 ± 0.043,0.939 ± 0.055,0.967 ± 0.04,0.939 ± 0.036,0.877 ± 0.046
UniProt O94763 and related entries,0.972 ± 0.025,0.982 ± 0.057,,,,,,
CDC123 (UniProt O75794),1.03 ± 0.05,1.09 ± 0.088,,,,,,
VPS4B (UniProt O75351),1.05 ± 0.048,1.05 ± 0.05,,,,,,
CRTAP (UniProt O75718),0.998 ± 0.039,1.09 ± 0.026,1.11 ± 0.024,1.14 ± 0.032,1.16 ± 0.024,1.19 ± 0.034,1.19 ± 0.033,1.2 ± 0.052
UniProt O75400 and related entries,1.04 ± 0.064,1.27 ± 0.099,1.35 ± 0.075,1.44 ± 0.086,1.65 ± 0.097,2.14 ± 0.13,2.39 ± 0.13,2.62 ± 0.2
UniProt O75592 and related entries,0.974 ± 0.12,0.996 ± 0.084,,,,,,
CPNE3 (UniProt O75131),1.01 ± 0.06,1.01 ± 0.033,0.969 ± 0.067,0.983 ± 0.052,0.954 ± 0.054,0.903 ± 0.1,0.951 ± 0.024,0.96 ± 0.024
DDX58 (UniProt O95786),1.08 ± 0.076,1.07 ± 0.082,1.06 ± 0.097,1.03 ± 0.063,1 ± 0.05,0.978 ± 0.078,1.03 ± 0.056,1.01 ± 0.055
ZBTB11 (UniProt O95625),1.03 ± 0.045,1.04 ± 0.035,1.03 ± 0.057,1.004 ± 0.0071,1.03 ± 0.053,0.949 ± 0.021,0.97 ± 0.015,0.979 ± 0.04
TMEM63A (UniProt O94886),1.06 ± 0.026,0.959 ± 0.044,0.9962 ± 0.0062,1.016 ± 0.004,1.01 ± 0.023,1.0012 ± 0.00078,0.961 ± 0.024,0.979 ± 0.01

# Some values from above.
# Under NP40-soluble protein abundance (concentration: 0.5mM), CPD (UniProt O75976) has 0.942 ± 0.044
# Under NP40-soluble protein abundance (concentration: 0.1mM), UniProt O94763 and related entries has 0.972 ± 0.025
